Reference: US20200340003A1
Results are given in words; binding and its absence hold for the method and conditions named. In cells and extracts the contact can be indirect. Some results given as binding are weak or reduced against the parent protein; the word gives no strength.

Key:
[1] = target: T1, TET9 (Arabidopsis … 9) (Arabidopsis) (UniProt Q9M0B7); test: co-immunoprecipitation with anti-FLAG M2 affinity gel, Western blot with anti-FLAG and anti-GFP antibodies
T1 sequence (looked up): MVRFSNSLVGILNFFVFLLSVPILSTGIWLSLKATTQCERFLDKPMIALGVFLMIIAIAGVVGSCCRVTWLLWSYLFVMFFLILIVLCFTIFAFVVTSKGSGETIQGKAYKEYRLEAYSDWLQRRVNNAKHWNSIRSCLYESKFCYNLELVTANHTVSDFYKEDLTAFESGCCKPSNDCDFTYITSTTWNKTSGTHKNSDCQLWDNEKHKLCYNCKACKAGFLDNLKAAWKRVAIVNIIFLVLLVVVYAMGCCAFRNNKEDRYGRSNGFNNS

[2] = target: T1, TET9 (Arabidopsis … 9) (Arabidopsis); test: reciprocal co-immunoprecipitation in vivo, anti-FLAG M2 affinity gel, Western blot with anti-FLAG and anti-GFP

B1: TET8 (Arabidopsis … 8) (protein, UniProt Q8S8Q6 1-273, looked up)
chain: MARCSNNLVGILNFLVFLLSIPILAGGIWLSQKGSTECERFLDKPVIALGVFLMVVAIAGLIGSCCRVTWLLWVYLFVMFLLILLVFCITVFAFVVTNKGAGEAIEGKGYKEYKLGDYSTWLQKRVENGKNWNKIRSCLVESKVCSKLEAKFVNVPVNSFYKEHLTALQSGCCKPSDECGFEYVNPTTWTKNTTGTHTNPDCQTWDNAKEKLCFDCQSCKAGLLDNVKSAWKKVAIVNIVFLVFLIIVYSVGCCAFRNNKRDDSYSRTYGYKP
For B1, the binding [1] was “binds” and the binding [2] was “binds”.
